Assay results taken from article PMC5853388.
No constants are given. Whether binding was seen depends on the method and setting. For some assays here: In cells and extracts the contact can be indirect. Some binding calls cover weakened binding; strength is not graded here. Tags and fused reporters may be left off the sequences shown.

The chains behind the UniProt entries cited, without tags or fusion partners. Where a name states a change or a piece, a line headed by the entry shows the natural chain unless it says otherwise.
UniProt Q39255: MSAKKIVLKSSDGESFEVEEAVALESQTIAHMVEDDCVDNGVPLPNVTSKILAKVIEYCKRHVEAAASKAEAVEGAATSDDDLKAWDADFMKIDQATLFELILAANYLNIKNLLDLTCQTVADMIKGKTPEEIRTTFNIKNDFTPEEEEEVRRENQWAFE

What was measured:
[1] = molecular target: T1, CFB (Cytokinin-induced F-box encoding) fused to the LexA DNA-binding domain (Arabidopsis thaliana) (UniProt Q2V3R1); assay: two-hybrid; lexA-based yeast two-hybrid in L40ccU3 cells; CFB versions on LexA-BD, ASK1 on Gal4-AD; growth on SDIV selection medium, 3 d at 28 °C
T1 sequence: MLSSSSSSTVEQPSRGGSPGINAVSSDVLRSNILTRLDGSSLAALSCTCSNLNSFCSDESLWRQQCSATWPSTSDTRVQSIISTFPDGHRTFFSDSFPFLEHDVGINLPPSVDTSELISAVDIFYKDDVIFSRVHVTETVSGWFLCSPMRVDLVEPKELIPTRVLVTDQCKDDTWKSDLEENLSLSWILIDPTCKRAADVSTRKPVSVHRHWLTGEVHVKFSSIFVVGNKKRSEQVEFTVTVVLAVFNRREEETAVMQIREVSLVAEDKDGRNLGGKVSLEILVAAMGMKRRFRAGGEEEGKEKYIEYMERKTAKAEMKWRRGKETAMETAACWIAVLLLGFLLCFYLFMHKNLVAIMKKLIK

[2] = molecular target: T2, CFB fused to the C-terminal part of ubiquitin (Cub) (Arabidopsis thaliana) (UniProt Q2V3R1); assay: split reporter; split-ubiquitin system in yeast THY.AP4α; CFB versions fused to Cub, ASK1 to NubG; growth on SD -L, -W, -A, -H with 135 µM Met
T2 sequence: T1 sequence

ASK1 (Arabidopsis SKP1 homolog) fused to the Gal4 activation domain (from UniProt Q39255 1-160)
binding [1]: binds

ASK1 fused to the non-interacting N-terminal mutant part of ubiquitin (NubG) (from UniProt Q39255 1-160)
binding [2]: binds
